According to US9938322B2 (priority 2013, dated 2018):

Assay: general procedure: Fmoc solid-phase peptide synthesis; preloaded Fmoc-amino acid 2-chlorotrityl resins
Conditions: whole synthesis, scale of the general procedure approximately 80 mg resin per vessel

Compared with “PEPTIDE1{L.S.Y.[Dab].[Orn].[DDab].[Dab].W.R.[tBuGly].A.S.[dP].P}$PEPTIDE1,PEPTIDE1,1:R1-14:R2$$$V2.0”, “PEPTIDE1{L.S.Y.[Dab].[Orn].[DDab].[Dab].W.[Dab].V.A.S.[dP].P}$PEPTIDE1,PEPTIDE1,1:R1-14:R2$$$V2.0” is lower in “purity (crude or final not stated)” value: 90% for the first, 89% for the second.

First: PEPTIDE1{L.S.Y.[Dab].[Orn].[DDab].[Dab].W.[Dab].W.A.S.[dP].P}$PEPTIDE1,PEPTIDE1,1:R1-14:R2$$$V2.0
Second: PEPTIDE1{L.S.Y.[Dab].[Orn].[DDab].[Dab].W.[Dab].Y.A.S.[dP].P}$PEPTIDE1,PEPTIDE1,1:R1-14:R2$$$V2.0
The “purity (crude or final not stated)” value of the first is higher: 93% for the first, 89% for the second.

Compared with “PEPTIDE1{L.S.Y.[Dab].[Orn].[DDab].[Dab].W.[Dab].[Chg].A.S.[dP].P}$PEPTIDE1,PEPTIDE1,1:R1-14:R2$$$V2.0”, “PEPTIDE1{L.S.Y.[Dab].[Orn].[DDab].[Dab].W.[Dab].[Nva].A.S.[dP].P}$PEPTIDE1,PEPTIDE1,1:R1-14:R2$$$V2.0” is lower in “purity (crude or final not stated)” value: 85% for the first, 81% for the second.

First: PEPTIDE1{L.S.Y.[Dab].[Orn].[DDab].[Dab].W.[Dab].[Phg].A.S.[dP].P}$PEPTIDE1,PEPTIDE1,1:R1-14:R2$$$V2.0
Second: PEPTIDE1{L.S.Y.[Dab].[Orn].[DDab].[Dab].W.[Dab].[tBuGly].A.S.[dP].P}$PEPTIDE1,PEPTIDE1,1:R1-14:R2$$$V2.0
The “purity (crude or final not stated)” value of the first is lower: 90% for the first, 95% for the second.

First: PEPTIDE1{L.S.Y.[Dab].[Orn].[DDab].[Dab].W.[Dab].[tBuGly].[dA].S.[dP].P}$PEPTIDE1,PEPTIDE1,1:R1-14:R2$$$V2.0
Second: PEPTIDE1{L.S.Y.[Dab].[Orn].[DDab].[Dab].W.[Dap].[tBuGly].A.S.[dP].P}$PEPTIDE1,PEPTIDE1,1:R1-14:R2$$$V2.0
The “purity (crude or final not stated)” value of the first is higher: 88% for the first, 87% for the second.

Going from “PEPTIDE1{L.S.Y.[Dab].[Orn].[DDab].[Dab].W.[Hse].[tBuGly].A.S.[dP].P}$PEPTIDE1,PEPTIDE1,1:R1-14:R2$$$V2.0” to “PEPTIDE1{L.S.Y.[Dab].[Orn].[DDab].[Dap].W.[Dab].[tBuGly].A.S.[dP].P}$PEPTIDE1,PEPTIDE1,1:R1-14:R2$$$V2.0”, the “purity (crude or final not stated)” value falls from 90% to 86%.

Going from “PEPTIDE1{L.S.Y.[Dab].[Orn].[DDab].[Orn].W.[Dab].[tBuGly].A.S.[dP].P}$PEPTIDE1,PEPTIDE1,1:R1-14:R2$$$V2.0” to “PEPTIDE1{L.S.Y.[Dab].[Orn].[Dab].[Dab].W.[Dab].[Chg].A.S.[dP].P}$PEPTIDE1,PEPTIDE1,1:R1-14:R2$$$V2.0”, the “purity (crude or final not stated)” value falls from 92% to 88%.

Compared with “PEPTIDE1{L.S.Y.[Dab].[Orn].[Dab].[Dab].W.[Dab].[tBuGly].A.S.[dP].P}$PEPTIDE1,PEPTIDE1,1:R1-14:R2$$$V2.0”, “PEPTIDE1{L.S.Y.[Dap].[Orn].[DDab].[Dab].W.[Dab].[tBuGly].A.S.[dP].P}$PEPTIDE1,PEPTIDE1,1:R1-14:R2$$$V2.0” is higher in “purity (crude or final not stated)” value: 87% for the first, 89% for the second.

Going from “PEPTIDE1{L.S.Y.[Orn].[Orn].[D-Dab].[Dab].W.[Dab].[tBuGly].A.S.[dP].P}$PEPTIDE1,PEPTIDE1,1:R1-14:R2$$$V2.0” to “PEPTIDE1{L.S.[Cha].[Dab].[Orn].[D-Dab].[Dab].W.[Dab].[tBuGly].A.S.[dP].[Pro((3S)OH)]}$PEPTIDE1,PEPTIDE1,1:R1-14:R2$$$V2.0”, the “purity (crude or final not stated)” value falls from 86% to 77%.

First: PEPTIDE1{L.S.[Cha].[Dab].[Orn].[D-Dab].[Dab].W.[Dab].[tBuGly].[Alb].S.[dP].[Pro((3S)OH)]}$PEPTIDE1,PEPTIDE1,1:R1-14:R2$$$V2.0
Second: PEPTIDE1{L.S.[Cha].[Dab].[Orn].[DDab].[Dab].W.[Dab].V.A.S.[dP].P}$PEPTIDE1,PEPTIDE1,1:R1-14:R2$$$V2.0
The “purity (crude or final not stated)” value of the first is lower: 83% for the first, 92% for the second.

First: PEPTIDE1{L.S.[Cha].[Dab].[Orn].[DDab].[Dab].W.[Dab].[tBuGly].A.S.[dP].P}$PEPTIDE1,PEPTIDE1,1:R1-14:R2$$$V2.0
Second: PEPTIDE1{L.S.[Cha].[Dab].[Orn].[Dab].[Dab].W.[Dab].[tBuGly].S.S.[dP].P}$PEPTIDE1,PEPTIDE1,1:R1-14:R2$$$V2.0
The “purity (crude or final not stated)” value of the first is higher: 92% for the first, 86% for the second.

Compared with “PEPTIDE1{L.S.[Tyr(Me)].[Dab].[Orn].[DDab].[Dab].W.[Dab].[tBuGly].A.S.[dP].P}$PEPTIDE1,PEPTIDE1,1:R1-14:R2$$$V2.0”, “PEPTIDE1{L.S.[tBuGly].[Dab].[Orn].[DDab].[Dab].W.[Dab].[Chg].A.S.[dP].P}$PEPTIDE1,PEPTIDE1,1:R1-14:R2$$$V2.0” is higher in “purity (crude or final not stated)” value: 88% for the first, 93% for the second.

Compared with “PEPTIDE1{L.T.Y.[Dab].[Dab].[D-Dab].[Dab].W.[Dab].[tBuGly].S.T.[dP].P}$PEPTIDE1,PEPTIDE1,1:R1-14:R2$$$V2.0”, “PEPTIDE1{L.T.Y.[Dab].[Orn].[D-Dab].[Dab].W.[Dab].[tBuGly].T.S.[dP].P}$PEPTIDE1,PEPTIDE1,1:R1-14:R2$$$V2.0” is higher in “purity (crude or final not stated)” value: 88% for the first, 89% for the second.

Going from “PEPTIDE1{L.T.Y.[Dab].[Orn].[D-Dab].[Dab].W.[Dab].[tBuGly].Y.S.[dP].P}$PEPTIDE1,PEPTIDE1,1:R1-14:R2$$$V2.0” to “PEPTIDE1{L.T.Y.[Dab].[Orn].[D-Dab].[Dab].W.[Dab].[tBuGly].[Dab].S.[dP].P}$PEPTIDE1,PEPTIDE1,1:R1-14:R2$$$V2.0”, the “purity (crude or final not stated)” value rises from 88% to 93%.

Going from “PEPTIDE1{L.[Ala(4butoxyPhUr)].[Cha].[Dab].[Orn].[DDab].[Dab].W.[Dab].[tBuGly].A.S.[dP].P}$PEPTIDE1,PEPTIDE1,1:R1-14:R2$$$V2.0” to “PEPTIDE1{L.[Ala(iPrUr)].[Cha].[Dab].[Orn].[DDab].[Dab].W.[Dab].[tBuGly].A.S.[dP].P}$PEPTIDE1,PEPTIDE1,1:R1-14:R2$$$V2.0”, the “purity (crude or final not stated)” value rises from 78% to 91%.

“PEPTIDE1{L.[Dab].Y.[Dab].[Orn].[DDab].[Dab].W.[Dab].[tBuGly].D.S.[dP].P}$PEPTIDE1,PEPTIDE1,1:R1-14:R2$$$V2.0” and “PEPTIDE1{L.[Dab].Y.[Dab].[Orn].[DDab].[Dab].W.[Dab].[tBuGly].T.S.[dP].P}$PEPTIDE1,PEPTIDE1,1:R1-14:R2$$$V2.0” are the same in “purity (crude or final not stated)” value: 93% for the first, 93% for the second.

Compared with “PEPTIDE1{L.[Dap].W.[Dab].[Orn].[DDab].[Dab].W.[Dab].[tBuGly].A.S.[dP].P}$PEPTIDE1,PEPTIDE1,1:R1-14:R2$$$V2.0”, “PEPTIDE1{L.[Dap].Y.[Dab].[Dab].[DDab].[Dab].W.[Dab].[tBuGly].S.T.[dP].P}$PEPTIDE1,PEPTIDE1,1:R1-14:R2$$$V2.0” is higher in “purity (crude or final not stated)” value: 88% for the first, 91% for the second.

First: PEPTIDE1{L.[Dap].Y.[Dab].[Orn].[DDab].[Dab].W.[Dab].[tBuGly].A.S.[dP].P}$PEPTIDE1,PEPTIDE1,1:R1-14:R2$$$V2.0
Second: PEPTIDE1{T.S.Y.[Dab].[Orn].[DDab].[Dab].W.[Dab].[tBuGly].A.L.[dP].P}$PEPTIDE1,PEPTIDE1,1:R1-14:R2$$$V2.0
The “purity (crude or final not stated)” value of the first is lower: 91% for the first, 93% for the second.

Going from “PEPTIDE1{T.S.Y.[Dab].[Orn].[DDab].[Dab].W.[Dab].[tBuGly].A.Y.[dP].P}$PEPTIDE1,PEPTIDE1,1:R1-14:R2$$$V2.0” to “PEPTIDE1{V.A.Y.[Dab].[Orn].[D-Dab].[Dab].W.[Dab].[tBuGly].A.S.[dP].P}$PEPTIDE1,PEPTIDE1,1:R1-14:R2$$$V2.0”, the “purity (crude or final not stated)” value falls from 95% to 82%.

“PEPTIDE1{V.S.Y.[Dab].[Orn].[D-Dab].[Dab].W.[Dab].[tBuGly].A.S.[dP].[Pro((3S)OH)]}$PEPTIDE1,PEPTIDE1,1:R1-14:R2$$$V2.0” and “PEPTIDE1{V.S.Y.[Dab].[Orn].[DDab].[Dab].W.[Dab].[Cha].A.S.[dP].P}$PEPTIDE1,PEPTIDE1,1:R1-14:R2$$$V2.0” are the same in “purity (crude or final not stated)” value: 92% for the first, 92% for the second.

First: PEPTIDE1{V.S.Y.[Dab].[Orn].[DDab].[Dab].W.[Dab].[Chg].A.S.[dP].P}$PEPTIDE1,PEPTIDE1,1:R1-14:R2$$$V2.0
Second: PEPTIDE1{V.S.Y.[Dab].[Orn].[DDab].[Dab].W.[Dab].[tBuGly].A.S.[dP].P}$PEPTIDE1,PEPTIDE1,1:R1-14:R2$$$V2.0
The “purity (crude or final not stated)” value of the first is lower: 79% for the first, 88% for the second.

Compared with “PEPTIDE1{V.S.Y.[Dab].[Orn].[Dab].[Dab].W.[Dab].[tBuGly].A.S.[dP].P}$PEPTIDE1,PEPTIDE1,1:R1-14:R2$$$V2.0”, “PEPTIDE1{W.A.W.[Dab].[Orn].[D-Dab].[Dab].W.[Dab].[tBuGly].A.S.[dP].P}$PEPTIDE1,PEPTIDE1,1:R1-14:R2$$$V2.0” is lower in “purity (crude or final not stated)” value: 87% for the first, 78% for the second.

Going from “PEPTIDE1{W.A.Y.[Dab].K.[D-Dab].[Dab].W.[Dab].[Cha].A.S.[dP].P}$PEPTIDE1,PEPTIDE1,1:R1-14:R2$$$V2.0” to “PEPTIDE1{W.A.Y.[Dab].K.[D-Dab].[Dab].W.[Dab].[tBuGly].A.S.[dP].P}$PEPTIDE1,PEPTIDE1,1:R1-14:R2$$$V2.0”, the “purity (crude or final not stated)” value rises from 86% to 94%.

Compared with “PEPTIDE1{W.A.Y.[Dab].[Orn].[D-Dab].[Dab].W.[Dab].[Chg].A.S.[dP].P}$PEPTIDE1,PEPTIDE1,1:R1-14:R2$$$V2.0”, “PEPTIDE1{W.A.Y.[Dab].[Orn].[DDab].[Dab].W.[Dab].[tBuGly].A.S.[dP].P}$PEPTIDE1,PEPTIDE1,1:R1-14:R2$$$V2.0” is lower in “purity (crude or final not stated)” value: 94% for the first, 91% for the second.

Compared with “PEPTIDE1{W.A.[Cha].[Dab].[Orn].[DDab].[Dab].W.[Dab].[tBuGly].[Ser(Me)].S.[dP].[Oic]}$PEPTIDE1,PEPTIDE1,1:R1-14:R2$$$V2.0”, “PEPTIDE1{W.A.[Cha].[Dab].[Orn].[Dab].[Dab].W.[Dab].[tBuGly].[Ser(Me)].S.[dP].P}$PEPTIDE1,PEPTIDE1,1:R1-14:R2$$$V2.0” is lower in “purity (crude or final not stated)” value: 97% for the first, 93% for the second.

With “PEPTIDE1{W.A.[Chg].[Dab].[Orn].[DDab].[Dab].W.[Dab].[tBuGly].A.S.[dP].P}$PEPTIDE1,PEPTIDE1,1:R1-14:R2$$$V2.0” the “purity (crude or final not stated)” value was 99%.

HELM strings list residues between dots; [ac] is acetyl, [am] amide, other brackets name non-standard units.
